# According to patent US20100022551A1, “TRIMETAZIDINE FOR USE IN THE TREATMENT OF FIBROMYALGIA SYNDROME AND RELATED CONDITIONS” (Mintals Limited Consulco, Consulco House, priority 2006, published 2010):
# Some of these results come from one statement about several compounds together.
# Tested on: Human Subject Diagnosed with Fibromyalgia
# Assay: Patient history of prior treatment of the fibromyalgia subjects
# Settings: Examples 1 and 2
# Excerpt: (§1) Patient History of Prior Treatment: A patient history was taken. Prior treatments targeting pain relief were as follows.
# Prior treatments targeting other symptoms included the following. The subject had taken tegaserod for irritable bowel syndrome. Additional prior therapies included sertraline for depression, and zolpidem for insomnia. The subject has also taken proclorperazine for dizziness.
# Prior treatments targeting other symptoms included the following. The subject had taken tegaserod for irritable bowel syndrome. Additional prior therapies included sertraline for depression, and zolpidem for insomnia.
# as §1
# Prior treatments targeting other symptoms included the following. The subject had taken tegaserod for irritable bowel syndrome. Additional prior therapies included zolpidem, midazolam, zopiclone, and chlorpheniramine for insomnia.
compound,measurement,value
CCN(CC)CC(=O)Nc1c(C)cccc1C [lidocaine],interval at which trigger point injections had to be repeated,2 to 4 week
